Source: PubChem BioAssay AID1487 (National Center for Advancing Translational Sciences (NCATS), 2009)
The list shows a part of the results. These are further read-outs of the screen, such as a control signal, another cell line or another target. No call is given for them. Most of these compounds were active or inconclusive in the main read-out, so they are no random draw. Potencies come from curve fits of mixed quality, noted in brackets.

Assay: qHTS Assay for Modulators of Lamin A Splicing
Conditions: HeLa LMNA splicing GFP/RFP minigene ratio, 48 h
Outline: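 S3 HeLa stable clones carrying a lamin A-EGFP splicing minigene plus DsRed2 were seeded at 600 cells/well in Opti-MEM with 2% FBS, pin-dosed and incubated 48 h at 37°C. Acumen cytometry (488 nm) gave the GFP/RFP total-intensity ratio.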

[1] = measured here: RFP viability control channel
[2] = measured here: GFP splicing reporter channel

Structure (SMILES) | AC50 [1] | AC50 [2]
Cc1cccc(C(=O)NC(=S)Nc2ccc(S(=O)(=O)N(C)c3ccccc3)cc2)c1 | 17.8 µM [rising, single point] | 
Cc1oc2c(c1C(=O)N1CCOCC1)C(=O)c1ccccc1C2=O | 6.31 µM [falling, full curve] | 7.08 µM [falling, full curve]
O=C(Nc1nc2c(s1)CCCC2)c1ccc2ncsc2c1 | 22.4 µM [rising, partial curve] | 12.6 µM [rising, partial curve]
CCCNS(=O)(=O)c1ccc(CCC(=O)Nc2ccc3c(c2)OCCO3)cc1 | 35.5 µM [rising, single point] | 
Cc1c(N/N=C(\C#N)C(=O)c2ccccc2)c(=O)n(-c2ccccc2)n1C | 5.62 µM [rising, full curve] | 
CCCCSc1nnc([C@@H](NC(=O)OC(C)(C)C)C(C)C)o1 | 31.6 µM [rising, single point] | 
O=C(Nc1cnn(Cc2ccc(Cl)cc2Cl)c1)c1cc(-c2cccs2)on1 | 35.5 µM [falling, single point] | 
N#C/C(=C1/SCC(c2ccccc2Cl)S1)n1ccnc1 (configuration not stated) | 10 µM [rising, partial curve] | 10 µM [rising, partial curve, poor fit]
c1ccc(C(c2nnnn2Cc2ccco2)N2CCN(c3nc4ccccc4s3)CC2)cc1 (configuration not stated) | 35.5 µM [rising, single point] | 
CC(=O)N1CCN(c2ccc(Nc3ncnc4c3oc3ccccc34)cc2)CC1 | 11.2 µM [rising, partial curve] | 12.6 µM [rising, partial curve]
O=C(CCOc1ccccc1)Nc1cccc(S(=O)(=O)Nc2ccccc2Cl)c1 | 22.4 µM [rising, single point] | 5.01 µM [rising, partial curve, poor fit]
CCN(CC)S(=O)(=O)c1ccc(OC)c(NC(=O)c2cccs2)c1 | 35.5 µM [falling, partial curve] | 
CNc1ccccc(-c2ccc3ccccc3n2)c1=O | 22.4 µM [rising, single point] | 35.5 µM [rising, single point]
Cc1c(NC(=O)CSCc2ccc(Br)cc2)c(=O)n(-c2ccccc2)n1C | 0.01 µM [falling, full curve, poor fit] | 0.01 µM [falling, full curve]
Oc1cccc(-c2nc3ccccc3s2)c1 | 15.8 µM [rising, single point] | 
Brc1ccc(Cn2c(-c3ccc(Br)o3)nc3ccccc32)o1 |  | 35.5 µM [rising, single point]
C=CCn1c(SCC(=O)N2CCN(c3ccc(F)cc3)CC2)nnc1-c1cccs1 | 7.94 µM [rising, partial curve, poor fit] | 
CCNc1ncc2nc(-c3ccc(OC)cc3)c(=O)n(Cc3ccc(F)cc3)c2n1 | 12.6 µM [falling, partial curve] | 12.6 µM [falling, partial curve]
CCOc1ccc(-c2cc(C(=O)NCC3CCCO3)c3ccccc3n2)cc1 (configuration not stated) | 35.5 µM [rising, single point] | 35.5 µM [rising, single point]
CCCCNC(=O)c1ccc(Cn2c(=S)[nH]c3c([nH]c4ccc(OC)cc43)c2=O)cc1 | 35.5 µM [falling, single point] | 35.5 µM [falling, single point]
O=C(COc1ccc(F)cc1)Nc1ccc2nc(SCC(=O)N3CCCC3)sc2c1 | 3.55 µM [falling, partial curve] | 1 µM [falling, full curve, poor fit]
CCCn1c(=O)c2[nH]c(C3CCCC3)nc2n(CCC)c1=O | 35.5 µM [falling, partial curve, poor fit] | 35.5 µM [falling, single point]
CCc1nc2ccccc2c(C(=O)OCC(=O)Nc2ccc(S(=O)(=O)N3CCOCC3)cc2)c1C | 20 µM [rising, single point] | 10 µM [rising, partial curve, poor fit]
COc1ccc(C2C(C#N)=C(N)Oc3n[nH]c(C)c32)cc1Cn1nnc2ccccc21 (configuration not stated) |  | 20 µM [rising, single point]
O=[N+]([O-])c1cccnc1N1CCC(c2cc(-c3ccc(Cl)cc3Cl)n[nH]2)CC1 | 28.2 µM [rising, single point] | 
COc1ccc(C(=O)c2ccc(N(C)C)cc2)c(OC)c1 | 5.62 µM [falling, partial curve] | 7.08 µM [falling, partial curve]
CCOC(=O)c1ccccc1NS(=O)(=O)c1ccc(OC)cc1 | 10 µM [rising, partial curve, poor fit] | 

Structure (SMILES) | AC50 [1] | AC50 [2]
O=C(CCNNC(=O)c1ccncc1)NCc1ccccc1 | 7.08 µM [falling, single point] | 12.6 µM [falling, single point]
O=C(COc1ccc(Cl)cc1)NCc1nnc(SCC(=O)NCc2ccc3c(c2)OCO3)o1 | 22.4 µM [rising, single point] | 15.8 µM [rising, single point]
Clc1cccc(-n2ncc3c(NC4CCCCC4)ncnc32)c1 | 11.2 µM [rising, partial curve, poor fit] | 
Cc1cc(C)c(C)c(OCCCOc2cccc3cccnc23)c1 | 15.8 µM [rising, partial curve, poor fit] | 
Cc1cccc(N2CCN(C(=O)c3ccc4nc(-c5ccco5)c(-c5ccco5)nc4c3)CC2C)c1 (configuration not stated) | 35.5 µM [falling, single point] | 35.5 µM [falling, single point]
CC(C)(C)OC(=O)N1CCC(c2c(C(=O)NCCN3CCC(Cc4ccccc4)CC3)cnn2-c2cccc(Cl)c2)CC1 | 17.8 µM [falling, single point] | 14.1 µM [falling, single point]
Cc1c(C(=O)Nc2ccc3c(c2)OCCO3)sc2nc(-c3ccccc3)cn12 | 3.55 µM [rising, single point] | 35.5 µM [falling, single point]
CN(C)CCCN(Cc1ccccc1)C(=S)Nc1ccc(OC(F)F)cc1 | 0.316 µM [rising, full curve, poor fit] | 
CCOCCCNC(=O)C(Cc1ccccc1)NS(=O)(=O)c1cccc2nsnc12 (configuration not stated) | 0.0224 µM [falling, full curve, poor fit] | 
Nc1cc(Cl)nc(N/N=C/c2c(O)ccc3ccccc23)n1 | 17.8 µM [rising, single point] | 11.2 µM [rising, single point]
CC(C)(C)c1ccc(S(=O)(=O)N2CCC(c3nc4ccc(Cl)cc4[nH]3)CC2)cc1 | 10 µM [rising, partial curve, poor fit] | 
Clc1ccccc1N1CCN(c2ncnc3c2c(-c2ccccc2)cn3-c2ccccc2)CC1 | 5.62 µM [rising, single point] | 
CCCC(=O)NC(=S)Nc1ccccc1N1CCOCC1 | 0.251 µM [rising, partial curve, poor fit] | 
O=C(N/N=C/c1cn(-c2ccccc2)nc1-c1cc2ccccc2o1)c1ccccc1Br | 35.5 µM [rising, single point] | 
COc1ccc(-n2c(SCC(=O)Nc3nc(C)cs3)nnc2-c2ccoc2C)cc1 | 35.5 µM [rising, single point] | 
O=C(Nc1ccc(N2CCCC2)c(S(=O)(=O)Nc2cccc(C(F)(F)F)c2)c1)c1cccs1 | 15.8 µM [rising, partial curve] | 12.6 µM [rising, single point]
O=C(Nc1ccc2c(c1)CCCN2C(=O)c1cccs1)c1cccc(C(F)(F)F)c1 | 3.98 µM [rising, full curve, poor fit] | 
Fc1ccc2[nH]c3c(N4CCN(Cc5ccc6c(c5)OCO6)CC4)ncnc3c2c1 | 5.62 µM [rising, partial curve] | 7.08 µM [rising, partial curve]
CCCOP(=O)(OCCC)c1c([N+](=O)[O-])cc(C(F)(F)F)cc1[N+](=O)[O-] | 25.1 µM [falling, partial curve, poor fit] | 
S=c1[nH]nc(-c2ccccn2)n1/N=C/c1ccc(-c2ccccc2Br)o1 | 6.31 µM [falling, partial curve, poor fit] | 11.2 µM [falling, partial curve, poor fit]
CC1Cc2nc(SCC(=O)Nc3nc4ccccc4s3)n(C)c(=O)c2S1 (configuration not stated) | 35.5 µM [rising, single point] | 
CC(C)CCOc1ccc(C(=O)N2CCCC2C(=O)O)cc1 (configuration not stated) |  | 0.0316 µM [rising, full curve, poor fit]
COC(=O)c1c(NC(=O)CN2CCOCC2)sc2c1CCC(C)C2 (configuration not stated) |  | 10 µM [rising, single point]
Cc1cccc(CNc2ncnc3ccc(-c4ccc5c(c4)OCO5)cc23)c1 | 8.91 µM [falling, partial curve] | 25.1 µM [falling, single point]
CCCC(=O)c1ccc(N2CCN(C(=O)c3ccc(Br)cc3)CC2)c(F)c1 |  | 12.6 µM [rising, single point]
COc1cccc(CSc2nc3cc4c(cc3cc2C)OCCO4)c1 | 5.62 µM [rising, partial curve, poor fit] | 

Shown with tabs: part of the list above.
Structure (SMILES)	AC50 [1]	AC50 [2]
O=C(Nc1nc2c(s1)CCCC2)c1ccc2ncsc2c1	22.4 µM [rising, partial curve]	12.6 µM [rising, partial curve]
CCCNS(=O)(=O)c1ccc(CCC(=O)Nc2ccc3c(c2)OCCO3)cc1	35.5 µM [rising, single point]	
Cc1c(N/N=C(\C#N)C(=O)c2ccccc2)c(=O)n(-c2ccccc2)n1C	5.62 µM [rising, full curve]	
CCCCSc1nnc([C@@H](NC(=O)OC(C)(C)C)C(C)C)o1	31.6 µM [rising, single point]	
O=C(Nc1cnn(Cc2ccc(Cl)cc2Cl)c1)c1cc(-c2cccs2)on1	35.5 µM [falling, single point]	
N#C/C(=C1/SCC(c2ccccc2Cl)S1)n1ccnc1 (configuration not stated)	10 µM [rising, partial curve]	10 µM [rising, partial curve, poor fit]
c1ccc(C(c2nnnn2Cc2ccco2)N2CCN(c3nc4ccccc4s3)CC2)cc1 (configuration not stated)	35.5 µM [rising, single point]	
CC(=O)N1CCN(c2ccc(Nc3ncnc4c3oc3ccccc34)cc2)CC1	11.2 µM [rising, partial curve]	12.6 µM [rising, partial curve]
O=C(CCOc1ccccc1)Nc1cccc(S(=O)(=O)Nc2ccccc2Cl)c1	22.4 µM [rising, single point]	5.01 µM [rising, partial curve, poor fit]
CCN(CC)S(=O)(=O)c1ccc(OC)c(NC(=O)c2cccs2)c1	35.5 µM [falling, partial curve]	
CNc1ccccc(-c2ccc3ccccc3n2)c1=O	22.4 µM [rising, single point]	35.5 µM [rising, single point]
Cc1c(NC(=O)CSCc2ccc(Br)cc2)c(=O)n(-c2ccccc2)n1C	0.01 µM [falling, full curve, poor fit]	0.01 µM [falling, full curve]
Oc1cccc(-c2nc3ccccc3s2)c1	15.8 µM [rising, single point]	
Brc1ccc(Cn2c(-c3ccc(Br)o3)nc3ccccc32)o1		35.5 µM [rising, single point]
C=CCn1c(SCC(=O)N2CCN(c3ccc(F)cc3)CC2)nnc1-c1cccs1	7.94 µM [rising, partial curve, poor fit]	
CCNc1ncc2nc(-c3ccc(OC)cc3)c(=O)n(Cc3ccc(F)cc3)c2n1	12.6 µM [falling, partial curve]	12.6 µM [falling, partial curve]
